Some results were stated once for a whole list of compounds, not compound by compound.
Test system: BALB/c female mouse
Assay: Immune response to individual peptide: immunization of mice, indirect solid-phase immunoenzymatic assay of antiserum (A450)
Assay type: in vivo
Details: immunogenicity grouping; for A450 for dilution 1:100: serum dilution 1:100; for A450 for dilution 1:1000: serum dilution 1:1000
Method: Peptides were dissolved in appropriate volume 8M Urea and additional solution. Final concentration of peptide-Str-HRP solution was 0.8 mg/ml and 0.6 mg/ml for peptide and Str-HRP, respectively. After dissolving, 4 aliquotes in 0.2 ml portions were taken from each peptide solution, mixed with 0.6 ml Str-HRP and incubated over night at +4° C. Conjugate peptide with carrier protein (Str-HRP) was frozen and stored at −20° C. until further use. Final concentration of urea in peptide-Str-HRP solution was 2M for all peptides.
Day 0: Immunization with complete Freund's adjuvant Day 7: Booster with incomplete Freund's adjuvant Day 14: Booster with incomplete Freund's adjuvant Day 28: Booster with incomplete Freund's adjuvant Day 38: Terminal bleed
Method of Immunization: Frozen 0.8 ml aliquotes of peptide+Str-HRP conjugate were thawed at room temperature (RT) and mixed with 0.8 ml of appropriate adjuvant. Adjuvant was added and mixed by vortexing immediately before injections were given. Immunization was done by using intra peritoneal injections with 100 μg peptide per animal in final volume 250 μl of 1:1 (v:v) peptide+Str-HRP:adjuvant. Five animals were used per peptide.
Preparation of serum: At 38 days, the mouse was bled. Blood was collected in 2-ml microcentrifuge tube and the blood was allowed to clot at room temperature for 1 hour. Centrifugation using the microcentrifuge tube with the clot inside was done for 15 min at 2500 g and serum was collected. Volume for each sample was no less than 400 μl. The serum was stored at −20° C.
Testing immune response to individual peptide: Determination of mouse antibodies to peptide based on indirect solid-phase immunoenzymatic assay with avidin on solid-phase was performed. Materials used were 96-well polystyrene plates high binding (#9018 Costar, USA), all solution for ELISA: sample diluent (10 mM sodium phosphate, 500 mM NaCl, 0.5% BSA, 0.05% Tween-20, pH 7.4), conjugate diluent (10 mM sodium phosphate, 150 mM NaCl, 0.5% BSA, 0.05% Tween-20, pH 7.4), wash fluid (10 mM sodium phosphate, 300 mM NaCl, 0.05% Tween-20, pH 7.4), substrate buffer (50 mM sodium citrate and hydrogen peroxide, pH 5.0), TMB solution (3,3′,5,5′-tetramethylbenzidine), stop solution (2M sulphuric acid) were taken from EIA Kit for detection of antibody to HIV “Peptoscreen-2” (Amercard Ltd, Russia), conjugate of rabbit antibody to mouse IgG with HRPO (custom made), avidin from egg white (Imtek, Russia). Negative controls of 5 sera were pooled from the nonimmune BALB/c female mouse. Dispensing of solutions with Finnpipette digital adjustable volume pipettes 0.5-10 μl, 5-40 μl, 20-200 μl, 200-1000 μl, 1-5 ml and 12-channel pipettes 5-50 μl, 50-200 μl. Plate washer ZLE201 (Amersham Inc., UK), incubator at 37° C.—Imperial II (Lab-Line Instruments Inc., USA), EIA plate reader—Luminometer-Photometer LM01A (Immunotech, Beckman Coulter Company, USA).
Test procedure: Peptides for binding on the avidin-coated plate were taken from test-solution for determining the solubility of peptides (chapter 1.3., table 1 and 2) and were dissolved up to 2 mM in sample diluents immediately before the test procedure as shown in Table 3.
EIA plates were coated by adding to a well containing 100 μl of avidin dissolved 10 μg/ml in 50 mM carbonate buffer, pH 9.5 and incubated for 20 h at 20° C. The plates were washed 4 times with wash fluid. Peptides 2 mM, […] in sample diluent and incubated 60 min at 37° C. Control wells contain avidin. The plates were washed 4 times with wash fluid. Serum from each mouse and negative control were diluted 1:100, 1:1000 and 1:10000 in sample diluents and were added to the wells, coated by the corresponding peptide (100 μl per well) and incubated for 1 h at 37° C. The plates were washed 4 times with wash fluid. Conjugates of rabbit anti-mouse IgG antibody with HRPO (dilution of 1:3000 in conjugate diluent) were added to the wells (100 μl per well). The plates were incubated for 0.5 h at 37° C. […]

SEQ ID 5: Mouse MMP-9 synthetic oligopeptide, sequence DKDGKFGF
A450 for dilution 1:100: > 2.0
A450 for dilution 1:1000: < 1.0

SEQ ID 7: Rat MMP-9 synthetic oligopeptide, sequence DTDRKYGF
A450 for dilution 1:1000: > 1.0

SEQ ID 10: Rabbit MMP-9 synthetic oligopeptide, sequence DTDRRFGF
A450 for dilution 1:1000: > 1.0

SEQ ID 12: Rat MMP-9 synthetic oligopeptide, sequence CHFPFTFEGRSYLSC
A450 for dilution 1:100: > 2.0
A450 for dilution 1:1000: < 1.0

SEQ ID 13: Chicken MMP-9 synthetic oligopeptide, sequence CHFPFIFEGRSYSRC
A450 for dilution 1:1000: > 1.0

SEQ ID 14: European Carp MMP-9 synthetic oligopeptide, sequence CHFPFLFEGTSYSSC
A450 for dilution 1:100: > 2.0
A450 for dilution 1:1000: < 1.0

SEQ ID 15: Pufferfish MMP-9 synthetic oligopeptide, sequence CHFPFRFQNKPYKHC
A450 for dilution 1:1000: > 1.0

SEQ ID 16: Flounder MMP-9 synthetic oligopeptide, sequence CHFPFTFEGKSYTSC
A450 for dilution 1:100: > 2.0
A450 for dilution 1:1000: < 1.0

SEQ ID 17: Bovine MMP-9 synthetic oligopeptide, sequence DQDKLYGFCPTRVDA
A450 for dilution 1:100: > 2.0
A450 for dilution 1:1000: < 1.0

SEQ ID 19: Mouse MMP-9 synthetic oligopeptide, sequence DQDKLYGFCPTRVDA (printed identical to SEQ ID 17)
A450 for dilution 1:100: > 2.0
A450 for dilution 1:1000: < 1.0

SEQ ID 21: Rabbit MMP-9 synthetic oligopeptide, sequence DKDKLYGFCPTRADS
A450 for dilution 1:100: > 2.0
A450 for dilution 1:1000: < 1.0

From patent US20140017267A1, “METALLOPROTEINASE OLIGOPEPTIDES AND THEIR THERAPEUTIC USE” (priority 2012, published 2014)
